{"source": "paper doi:10.1101/055285", "target": "T1, SPTLC1, taken as the GFP11-tagged bait of the SPOTS pull-down (human) (UniProt O15269)", "T1 sequence": "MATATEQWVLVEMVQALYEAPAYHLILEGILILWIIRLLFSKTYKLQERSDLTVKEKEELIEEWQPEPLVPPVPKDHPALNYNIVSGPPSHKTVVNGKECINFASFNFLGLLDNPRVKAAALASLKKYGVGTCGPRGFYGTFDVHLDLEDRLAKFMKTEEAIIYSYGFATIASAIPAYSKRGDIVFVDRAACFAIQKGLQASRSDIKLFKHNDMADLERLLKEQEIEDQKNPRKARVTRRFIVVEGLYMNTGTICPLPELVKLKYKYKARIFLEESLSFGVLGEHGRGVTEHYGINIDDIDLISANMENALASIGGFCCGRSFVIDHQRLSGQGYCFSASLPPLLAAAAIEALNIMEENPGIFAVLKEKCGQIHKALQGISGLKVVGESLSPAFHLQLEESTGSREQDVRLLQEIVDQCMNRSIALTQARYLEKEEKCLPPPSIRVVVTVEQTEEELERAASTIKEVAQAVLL", "assay": "co-IP", "note": "Results are given in words; binding and its absence hold for the method and conditions named. In cells and extracts the contact can be indirect. A result given as binding can be weak or reduced; the word gives no strength. Where a sequence is shown, tags or fusion partners need not be part of it.", "data": [{"substance": "ORMDL (human (endogenous in 293T))", "values": [{"measurement": "binding", "value": "binds"}]}]}
